In PMC9274485:
Results are given in words; binding and its absence hold for the method and conditions named. In cells and extracts the contact can be indirect. Some results given as binding are weak or reduced against the parent protein; the word gives no strength. For part of these data: Sequences can lack the tags named with a protein.

By UniProt entry, the sequences of proteins in these tests, tags left out.
UniProt Q06330: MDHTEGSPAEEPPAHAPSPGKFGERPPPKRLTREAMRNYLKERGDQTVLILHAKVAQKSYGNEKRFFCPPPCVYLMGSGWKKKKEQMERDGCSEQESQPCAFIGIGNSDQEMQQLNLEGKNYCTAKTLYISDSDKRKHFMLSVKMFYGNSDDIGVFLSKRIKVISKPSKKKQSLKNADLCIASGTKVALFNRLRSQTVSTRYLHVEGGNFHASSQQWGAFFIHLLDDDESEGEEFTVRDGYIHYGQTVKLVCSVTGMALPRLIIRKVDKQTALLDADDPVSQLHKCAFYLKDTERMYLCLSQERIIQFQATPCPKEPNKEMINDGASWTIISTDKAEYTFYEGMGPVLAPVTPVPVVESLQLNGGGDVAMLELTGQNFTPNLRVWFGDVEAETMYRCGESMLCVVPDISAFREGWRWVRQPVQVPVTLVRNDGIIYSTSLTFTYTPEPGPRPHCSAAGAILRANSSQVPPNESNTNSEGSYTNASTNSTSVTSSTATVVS

How the values were obtained:
FLAG-tagged BEND5 = target: T1, FLAG-tagged BEND5 (UniProt Q7L4P6); test: co-IP; HEK293T co-transfected with MYC-RBPJ and FLAG-BEND5 or FLAG-BEND5 △BEN; lysates immunoprecipitated with anti-FLAG agarose overnight at 4 °C, immunoblot with anti-MYC
T1 sequence: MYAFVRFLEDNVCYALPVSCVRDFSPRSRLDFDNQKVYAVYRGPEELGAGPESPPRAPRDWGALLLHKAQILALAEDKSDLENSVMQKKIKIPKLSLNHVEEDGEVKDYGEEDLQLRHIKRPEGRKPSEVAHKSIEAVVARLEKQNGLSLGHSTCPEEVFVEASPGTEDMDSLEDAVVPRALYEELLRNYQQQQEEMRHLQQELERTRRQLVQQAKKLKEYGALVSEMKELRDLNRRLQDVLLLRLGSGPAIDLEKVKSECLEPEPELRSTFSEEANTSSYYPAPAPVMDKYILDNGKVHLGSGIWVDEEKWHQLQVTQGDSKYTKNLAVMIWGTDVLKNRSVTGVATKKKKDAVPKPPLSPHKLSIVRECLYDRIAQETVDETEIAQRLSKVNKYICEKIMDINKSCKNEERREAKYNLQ

[1] = target: T2, BEN domain containing 5 (BEND5), endogenous (human (endogenous in MDA-MB-231 and ZR75-1)) (UniProt Q7L4P6); test: co-IP; endogenous proteins; MDA-MB-231 or ZR75-1 protein extract immunoprecipitated with anti-BEND5 or normal IgG, immunoblot with the indicated antibodies
T2 sequence: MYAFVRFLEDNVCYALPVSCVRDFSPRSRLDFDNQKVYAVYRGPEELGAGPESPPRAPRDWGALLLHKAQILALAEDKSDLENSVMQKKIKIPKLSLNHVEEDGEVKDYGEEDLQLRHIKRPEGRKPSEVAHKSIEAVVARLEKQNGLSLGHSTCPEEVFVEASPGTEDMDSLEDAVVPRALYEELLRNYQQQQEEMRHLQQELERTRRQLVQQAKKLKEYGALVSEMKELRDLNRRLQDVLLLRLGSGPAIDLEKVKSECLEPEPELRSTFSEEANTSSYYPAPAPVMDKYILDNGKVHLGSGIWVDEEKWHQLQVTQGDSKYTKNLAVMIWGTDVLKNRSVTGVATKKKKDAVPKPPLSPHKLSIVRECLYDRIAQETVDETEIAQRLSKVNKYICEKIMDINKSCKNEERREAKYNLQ

MYC-tagged RBPJ = MYC-tagged RBPJ (UniProt Q06330); test: co-IP; HEK293T co-transfected with FLAG-BEND5 and MYC-RBPJ or its deletion mutants; lysates immunoprecipitated with anti-MYC agarose overnight at 4 °C, immunoblot with anti-FLAG

In the case of “MYC-tagged RBPJ (from UniProt Q06330 1-500)”, the binding (FLAG-tagged BEND5) is reported as “binds”.

In the case of “recombination signal binding protein for immunoglobulin kappa J region (RBPJ), endogenous (from UniProt Q06330 1-500)”, the binding [1] is reported as “binds”.

B1: FLAG-tagged BEND5 (protein, UniProt Q7L4P6 1-421)
chain: MYAFVRFLEDNVCYALPVSCVRDFSPRSRLDFDNQKVYAVYRGPEELGAGPESPPRAPRDWGALLLHKAQILALAEDKSDLENSVMQKKIKIPKLSLNHVEEDGEVKDYGEEDLQLRHIKRPEGRKPSEVAHKSIEAVVARLEKQNGLSLGHSTCPEEVFVEASPGTEDMDSLEDAVVPRALYEELLRNYQQQQEEMRHLQQELERTRRQLVQQAKKLKEYGALVSEMKELRDLNRRLQDVLLLRLGSGPAIDLEKVKSECLEPEPELRSTFSEEANTSSYYPAPAPVMDKYILDNGKVHLGSGIWVDEEKWHQLQVTQGDSKYTKNLAVMIWGTDVLKNRSVTGVATKKKKDAVPKPPLSPHKLSIVRECLYDRIAQETVDETEIAQRLSKVNKYICEKIMDINKSCKNEERREAKYNLQ
With B1 the binding (MYC-tagged RBPJ) was “binds”.
